Measured values published in paper doi:10.1101/2024.06.25.600357.
No constants are given. Whether binding was seen depends on the method and setting. In cells and extracts the contact can be indirect. A yes stands for co-enrichment or nearness to the bait. Other partners may have been found.

Chains of the proteins cited; added tags and fusions are not shown.
UniProt Q9ULV4: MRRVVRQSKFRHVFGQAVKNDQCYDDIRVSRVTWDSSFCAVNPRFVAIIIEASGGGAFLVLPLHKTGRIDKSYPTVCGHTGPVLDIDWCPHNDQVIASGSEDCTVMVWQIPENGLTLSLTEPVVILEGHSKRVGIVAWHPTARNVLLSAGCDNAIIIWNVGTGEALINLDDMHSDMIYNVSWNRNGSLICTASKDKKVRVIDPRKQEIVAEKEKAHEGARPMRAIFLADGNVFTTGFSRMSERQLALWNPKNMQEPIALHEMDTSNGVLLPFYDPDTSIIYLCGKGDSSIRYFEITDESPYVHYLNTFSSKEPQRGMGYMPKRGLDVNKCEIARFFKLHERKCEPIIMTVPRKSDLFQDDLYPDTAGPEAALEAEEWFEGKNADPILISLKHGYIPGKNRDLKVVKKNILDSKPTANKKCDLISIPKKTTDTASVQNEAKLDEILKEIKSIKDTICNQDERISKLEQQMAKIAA
UniProt P35580: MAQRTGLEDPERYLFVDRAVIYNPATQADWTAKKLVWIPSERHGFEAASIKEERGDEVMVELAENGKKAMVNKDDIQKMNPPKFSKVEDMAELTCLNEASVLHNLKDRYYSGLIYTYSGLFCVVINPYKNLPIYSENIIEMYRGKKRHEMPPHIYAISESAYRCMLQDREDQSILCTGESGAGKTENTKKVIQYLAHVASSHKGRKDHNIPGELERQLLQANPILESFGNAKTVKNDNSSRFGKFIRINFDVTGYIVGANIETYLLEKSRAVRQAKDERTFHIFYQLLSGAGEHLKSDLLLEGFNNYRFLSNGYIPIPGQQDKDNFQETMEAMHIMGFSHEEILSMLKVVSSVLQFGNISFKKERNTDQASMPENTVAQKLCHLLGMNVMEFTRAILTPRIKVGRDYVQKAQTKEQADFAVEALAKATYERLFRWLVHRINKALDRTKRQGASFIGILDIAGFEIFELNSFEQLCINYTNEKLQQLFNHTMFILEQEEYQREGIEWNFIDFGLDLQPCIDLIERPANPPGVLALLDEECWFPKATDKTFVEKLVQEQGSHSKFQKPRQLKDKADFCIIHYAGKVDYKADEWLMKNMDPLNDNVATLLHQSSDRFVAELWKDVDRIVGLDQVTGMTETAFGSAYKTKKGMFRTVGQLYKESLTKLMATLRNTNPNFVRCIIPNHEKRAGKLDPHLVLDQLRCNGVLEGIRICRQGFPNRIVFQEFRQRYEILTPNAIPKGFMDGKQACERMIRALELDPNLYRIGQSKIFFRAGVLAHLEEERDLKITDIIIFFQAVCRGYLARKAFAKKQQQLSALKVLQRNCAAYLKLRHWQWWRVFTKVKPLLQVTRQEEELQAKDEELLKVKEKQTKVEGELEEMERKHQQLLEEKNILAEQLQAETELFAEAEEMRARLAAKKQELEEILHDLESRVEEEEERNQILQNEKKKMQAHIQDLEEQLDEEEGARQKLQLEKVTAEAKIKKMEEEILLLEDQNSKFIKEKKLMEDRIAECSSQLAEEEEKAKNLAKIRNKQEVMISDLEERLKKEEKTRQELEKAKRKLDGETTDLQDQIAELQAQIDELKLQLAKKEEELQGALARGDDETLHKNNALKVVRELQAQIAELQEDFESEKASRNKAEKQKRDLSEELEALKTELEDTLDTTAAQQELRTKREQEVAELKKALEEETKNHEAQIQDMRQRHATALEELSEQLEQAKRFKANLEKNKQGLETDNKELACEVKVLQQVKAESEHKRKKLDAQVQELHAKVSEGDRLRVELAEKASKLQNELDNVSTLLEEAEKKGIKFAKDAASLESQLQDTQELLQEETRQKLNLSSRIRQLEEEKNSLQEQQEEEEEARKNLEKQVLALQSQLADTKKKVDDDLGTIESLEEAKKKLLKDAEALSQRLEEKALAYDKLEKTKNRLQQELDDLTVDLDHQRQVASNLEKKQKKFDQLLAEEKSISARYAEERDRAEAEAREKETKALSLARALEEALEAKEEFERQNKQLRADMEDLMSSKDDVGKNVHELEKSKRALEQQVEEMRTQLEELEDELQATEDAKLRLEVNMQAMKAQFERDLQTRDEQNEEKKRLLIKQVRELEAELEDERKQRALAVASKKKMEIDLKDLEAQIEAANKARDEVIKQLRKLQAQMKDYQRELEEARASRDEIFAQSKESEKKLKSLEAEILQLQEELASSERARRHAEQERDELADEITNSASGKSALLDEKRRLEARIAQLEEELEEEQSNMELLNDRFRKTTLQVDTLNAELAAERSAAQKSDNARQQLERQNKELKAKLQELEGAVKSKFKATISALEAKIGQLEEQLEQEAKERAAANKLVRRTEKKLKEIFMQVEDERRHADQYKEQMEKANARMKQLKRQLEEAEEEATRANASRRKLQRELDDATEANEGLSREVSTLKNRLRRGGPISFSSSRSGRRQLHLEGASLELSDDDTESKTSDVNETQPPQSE

Target: T1, Vangl1 (human (endogenous in HUVEC)) (UniProt Q8TAA9)
T1 sequence: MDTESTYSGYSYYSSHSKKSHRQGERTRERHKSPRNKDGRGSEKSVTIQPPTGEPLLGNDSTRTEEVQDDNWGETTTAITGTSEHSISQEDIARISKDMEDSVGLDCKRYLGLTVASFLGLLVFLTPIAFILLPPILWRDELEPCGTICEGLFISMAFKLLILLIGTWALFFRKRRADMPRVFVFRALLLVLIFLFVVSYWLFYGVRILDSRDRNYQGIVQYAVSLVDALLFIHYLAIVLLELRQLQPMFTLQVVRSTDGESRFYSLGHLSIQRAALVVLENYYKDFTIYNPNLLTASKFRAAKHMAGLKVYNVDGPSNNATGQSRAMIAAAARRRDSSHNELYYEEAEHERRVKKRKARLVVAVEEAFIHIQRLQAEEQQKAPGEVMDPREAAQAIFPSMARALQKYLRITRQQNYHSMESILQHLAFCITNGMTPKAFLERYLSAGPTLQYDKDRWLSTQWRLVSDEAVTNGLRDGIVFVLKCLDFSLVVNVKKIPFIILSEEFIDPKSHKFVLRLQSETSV
Assay: affinity purification with mass spectrometry

Substance	binding
Coronin1C (CORO1C) (from UniProt Q9ULV4 1-474)	binds
Myosin10 (MYH10) (from UniProt P35580 1-1976)	binds
